Source: patent US20060286102A1
No constants are given. Whether binding was seen depends on the method and setting. In cells and extracts the contact can be indirect. Some binding calls cover weakened binding; strength is not graded here.

Protein sequences, listed by entry. Tags and fused reporters are not part of them. Residues count along the entry.
UniProt O43915, residues 93-201: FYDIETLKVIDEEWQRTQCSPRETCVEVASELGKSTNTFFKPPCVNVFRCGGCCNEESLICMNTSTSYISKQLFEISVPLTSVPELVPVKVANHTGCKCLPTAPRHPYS
UniProt P35916, residues 25-776: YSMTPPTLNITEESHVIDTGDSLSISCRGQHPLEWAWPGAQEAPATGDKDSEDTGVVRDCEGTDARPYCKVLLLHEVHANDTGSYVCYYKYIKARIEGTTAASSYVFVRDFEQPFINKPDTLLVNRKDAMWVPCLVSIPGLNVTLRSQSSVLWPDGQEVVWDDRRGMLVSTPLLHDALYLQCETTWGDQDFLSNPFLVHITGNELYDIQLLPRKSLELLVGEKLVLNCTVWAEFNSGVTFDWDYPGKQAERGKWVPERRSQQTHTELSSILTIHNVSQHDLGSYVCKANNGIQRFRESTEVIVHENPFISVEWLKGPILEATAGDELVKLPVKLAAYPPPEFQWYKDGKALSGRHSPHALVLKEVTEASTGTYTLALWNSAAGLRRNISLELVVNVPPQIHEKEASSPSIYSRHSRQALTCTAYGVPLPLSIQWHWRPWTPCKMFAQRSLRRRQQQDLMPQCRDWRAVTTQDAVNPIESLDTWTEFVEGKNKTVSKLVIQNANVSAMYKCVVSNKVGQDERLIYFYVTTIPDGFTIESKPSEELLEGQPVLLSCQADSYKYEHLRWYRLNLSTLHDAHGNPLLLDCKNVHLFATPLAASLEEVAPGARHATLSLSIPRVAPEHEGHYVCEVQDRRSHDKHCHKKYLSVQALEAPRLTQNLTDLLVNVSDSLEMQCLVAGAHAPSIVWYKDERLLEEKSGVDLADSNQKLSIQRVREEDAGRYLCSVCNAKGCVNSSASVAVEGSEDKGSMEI

Columns and labels:
VEGF-D [1] = target: VEGF-D (UniProt O43915); test: co-immunoprecipitation competition; sVEGFR-3-Fc (2 ug) competes with sVEGF3-Myc for VEGF-D
VEGF-D [2] = target: VEGF-D (UniProt O43915); test: co-immunoprecipitation with anti-VEGF-D antibodies from conditioned medium, anti-Myc Western blot

Substance	binding (VEGF-D [1])	binding (VEGF-D [2])
soluble VEGFR-3-Fc (R&D Systems) (from UniProt P35916 25-776) (Fc fusion)	binds	
soluble VEGFR-3 (Myc-His tagged, in conditioned medium of transfected 293T cells) (from UniProt P35916 25-272) (receptor)		binds
